Laboratory results: PubChem BioAssay AID1053208 (Peter MacCallum Cancer Centre, 2014)

Screen: 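Find knock-downs that sensitise mouse osteosarcoma cells to doxorubicin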 (primary screen)
Cell system: mouse osteosarcoma cells, early-passage culture from an engineered mouse model of fibroblastic bone tumour
Knock-down reagent: siRNA pool against mouse genes, 40 nM
Time to read-out: about 120 h (48 h before drug, then 72 h with drug)
Treatment: doxorubicin 100 nM for 72 h, roughly 30-40% inhibitory dose
Detection: 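Luminescent ATP signal taken as viability with or without 100 nM doxorubicin for 72 h; mean of two wells set against non-targeting siRNA and turned into robust z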
Reading the numbers: viability z-score with doxorubicin and doxorubicin viability vs non-targeting: higher = more viable cells under doxorubicin; viability z-score without drug: higher = more viable cells with knock-down alone; z-score of drug to no-drug ratio: higher = less drug sensitisation by knock-down
Rule for the call: 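Called active if knock-down leaves viability unchanged without drug (z within -2 to 2) but lowers it with doxorubicin (z at or under -2)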
Here is a random part of about 17,000 reagents tested. Of all reagents, 788 (4.7%) were called active. 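Calls rest on z-score classes alone; an extra cut-off of viability at most 70% of control was not applied to them.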 A number with no mark means an inactive call. Reagents against one gene are numbered here.

gene knocked down	reagent no.	combined z-score class	viability z-score with doxorubicin	viability z-score without drug	z-score of drug to no-drug ratio	doxorubicin viability vs non-targeting
Adh4	1	no change with or without drug	1.12	1.85	0	1.04
Mapk12	1	high cell count without drug only	1.35	2.02	0.11	1.06
Rab25	1	no change with or without drug	-0.11	-0.17	0.11	0.93
Phc2	1	no change with or without drug	0.67	-0.51	1.24	1
Sh3bp4	1	no change with or without drug	-0.9	-1.85	0.45	0.86
Osmr	1	no change with or without drug	-0.22	0.17	-0.22	0.92
Slc12a4	1	no change with or without drug	0.67	0.34	0.56	1
Cd209d	1	no change with or without drug	0.45	1.85	-0.67	0.98
Rdh1	1	no change with or without drug	-1.24	-0.51	-0.9	0.83
Shisa2	1	no change with or without drug	1.12	1.01	0.56	1.04
Cpxm2	1	no change with or without drug	1.35	0.34	1.24	1.06
Tmeff2	1	no change with or without drug	1.12	1.18	0.45	1.04
Zmynd11	1	no change with or without drug	-0.22	0.17	-0.22	0.92
Psd3	1	no change with or without drug	-0.79	0.17	-0.79	0.87
Psd3	2	high cell count with doxorubicin only	2.36	1.85	1.12	1.15
Pzp2	1	no change with or without drug	1.24	1.85	0.11	1.05
Zfp646	1	no change with or without drug	-0.9	-0.84	-0.22	0.86
Spink10	1	no change with or without drug	0.34	0.34	0.22	0.97
Col11a1	1	no change with or without drug	0	-0.51	0.45	0.94
Cabp7	1	no change with or without drug	-0.67	1.18	-1.35	0.88
Stpg1	1	no change with or without drug	0.22	1.35	-0.56	0.96
Mybbp1a	1	no change with or without drug	0.22	0.17	0.22	0.96
Dram2	1	no change with or without drug	0	0	0.11	0.94
Aste1	1	no change with or without drug	1.8	0.17	1.91	1.1
Klrc1	1	no change with or without drug	0.11	-0.34	0.45	0.95
Srpra	1	no change with or without drug	0.9	-1.85	2.59	1.02
Meak7	1	no change with or without drug	1.01	0.84	0.56	1.03
Casp8ap2	1	low cell count with doxorubicin only (active)	-2.02	-0.84	-1.57	0.76
Sall4	1	no change with or without drug	-0.67	1.18	-1.35	0.88
Bicc1	1	low cell count with doxorubicin only (active)	-2.02	-1.52	-1.12	0.76
Atp1b1	1	no change with or without drug	0.56	-0.17	0.79	0.99
Cat	1	no change with or without drug	1.57	0.51	1.35	1.08
Slc30a4	1	no change with or without drug	-0.45	-0.84	0.22	0.9
Or56b1	1	no change with or without drug	-0.67	-1.85	0.79	0.88
Bhlha9	1	no change with or without drug	0	-0.34	0.34	0.94
Zic5	1	high cell count with doxorubicin only	2.02	0.84	1.57	1.12
Ftcd	1	no change with or without drug	0	1.01	-0.56	0.94
Or4a69	1	no change with or without drug	0.79	-1.35	2.02	1.01
Fgfr3	1	no change with or without drug	-0.45	0.17	-0.45	0.9
Baat	1	high cell count with and without drug	2.7	3.71	0.34	1.18
Nit2	1	no change with or without drug	-0.9	-0.17	-0.79	0.86
Rab22a	1	no change with or without drug	0.67	0.51	0.45	1
Nono	1	low cell count with doxorubicin only (active)	-2.7	0.17	-2.81	0.7
Vgll1	1	no change with or without drug	-0.45	-0.17	-0.22	0.9
Rorc	1	no change with or without drug	0.67	0.51	0.45	1
Rad23b	1	no change with or without drug	0.56	-1.52	1.91	0.99
Or2h2	1	no change with or without drug	0.22	-0.84	1.01	0.96
Fbxo5	1	no change with or without drug	-0.34	-0.34	0	0.91
Vax1	1	no change with or without drug	-0.9	0	-0.79	0.86
Asah1	1	no change with or without drug	1.57	0.51	1.35	1.08

Entries above whose target name starts with S or s (8):
gene knocked down	reagent no.	combined z-score class	viability z-score with doxorubicin	viability z-score without drug	z-score of drug to no-drug ratio	doxorubicin viability vs non-targeting
Sh3bp4	1	no change with or without drug	-0.9	-1.85	0.45	0.86
Slc12a4	1	no change with or without drug	0.67	0.34	0.56	1
Shisa2	1	no change with or without drug	1.12	1.01	0.56	1.04
Spink10	1	no change with or without drug	0.34	0.34	0.22	0.97
Stpg1	1	no change with or without drug	0.22	1.35	-0.56	0.96
Srpra	1	no change with or without drug	0.9	-1.85	2.59	1.02
Sall4	1	no change with or without drug	-0.67	1.18	-1.35	0.88
Slc30a4	1	no change with or without drug	-0.45	-0.84	0.22	0.9
